# The list does not hold the whole screen: it is rich in T/C values a quarter to a half above the control, in often repeated tests (any T/C) and in doses without a T/C. Other doses and runs of a compound stand elsewhere. T/C: endpoint of the treated group in % of that of the vehicle group. Some entries give survivors of the animals treated and no T/C: the source holds a T/C of zero for them, seemingly a mark for toxic or unscored doses. Some survivor counts are full or nearly so, which does not show that the dose was tolerated: the source hardly ever lists a survival T/C far under the control, and the zero likely stands for such cases as well. Counts of survivors are from the toxicity check (mostly the fifth day) where no day follows; animals may have died later. Schedules are NCI's codes, read here as Q, the interval in days (D) or hours (H), X, the number of doses. Some doses were run more than once; their values stand side by side, smallest first. Where survival is the endpoint, this PubChem deposit counts one and a half times the control or more as active, and values a quarter to a half above the control carry no call in these data; other NCI protocols may use other cut-offs. Signs of the kind (2×) count equal records among those shown. Some T/C values carry the count of animals alive at the toxicity check (mostly the fifth day); where none is given, no animal had died by that day.
# System: BDF1 mice, P388 leukemia ip, median survival T/C
# Test: NCI In Vivo Anticancer Drug Screen. Data for tumor model P388 Leukemia (intraperitoneal) in B6D2F1 (BDF1) mice
# Details: T/C endpoint: median survival time, higher T/C = longer survival
# Procedure, shortened: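 Compound-treated tumour-bearing mice were compared with vehicle-treated controls. Survival was recorded, and the value is the treated-group measurement divided by the control-group measurement (T/C).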
# [1] = dose: 1.25 mg/kg/injection, schedule: Q01DX010 (ip), vehicle: saline
# [2] = dose: 2.5 mg/kg/injection, schedule: Q01DX010 (ip), vehicle: saline
# [3] = dose: 22.5 mg/kg/injection, schedule: Q01DX010 (ip), vehicle: saline
# [4] = dose: 25.0 mg/kg/injection, schedule: Q01DX009 (ip), vehicle: Klucel (hydroxypropylcellulose) (HPC)
# [5] = dose: 45.0 mg/kg/injection, schedule: Q01DX010 (ip), vehicle: saline
smiles,measurement,setting,value
O=P1(N(CCCl)CCCl)NCCCO1 (stereo not given),T/C,[1],"90 (2×), 91, 92 (2×), 96, 100 (8×), 109 (2×), 110 (5×), 111, 112, 115 (2×), 115 [5 of 6 alive], 116, 118, 120 (3×), 122, 127, 133 (2×), 134 [5 of 6 alive], 136, 145 % of control"
same,survivor count,[1],4 of 6 and 6 of 6
same,T/C,[2],"90, 92, 100 (6×), 104, 108 (2×), 109 (2×), 111, 113, 116 (2×), 118 (4×), 120 (3×), 122, 125, 125 [5 of 6 alive], 130 [5 of 6 alive], 133 (2×), 135, 136, 138, 140, 141, 146, 150, 153, 154, 160 % of control"
same,survivor count,[2],4 of 4 and 6 of 6
same,T/C,"dose: 5.0 mg/kg/injection, schedule: Q01DX010 (ip), vehicle: saline","125, 137 [5 of 6 alive], 138, 150, 153 [5 of 6 alive], 185, 188, 190 % of control"
same,T/C,"dose: 5.0 mg/kg/injection, schedule: Q01DX010 (ip), vehicle: water",140 % of control
same,T/C,"dose: 5.6 mg/kg/injection, schedule: Q01DX010 (ip), vehicle: saline","127, 136, 140, 144, 231 % of control"
same,T/C,"dose: 10.0 mg/kg/injection, schedule: Q01DX010 (ip), vehicle: saline","153, 176, 177, 180 (2×), 195, 200, 203, 205, 250, 270 % of control"
same,T/C,"dose: 11.2 mg/kg/injection, schedule: Q01DX010 (ip), vehicle: saline","126, 150, 213, 233 % of control"
same,T/C,[3],"177, 181, 254, 316 % of control"
same,survivor count,[3],5 of 6
same,T/C,"dose: 25.0 mg/kg/injection, schedule: Q01DX001 (ip), vehicle: saline",135 % of control
same,T/C,"dose: 25.0 mg/kg/injection, schedule: Q01DX005 (ip), vehicle: Klucel (hydroxypropylcellulose) (HPC), evaluated on day 30","90, 123, 126, 128, 162, 172, 173, 174, 175 (3×), 188, 195, 199, 202, 204 (2×), 210, 215, 219, 221 (2×), 224, 225, 227 (2×), 228, 231 (2×), 235, 241, 247, 254, 262 % of control"
same,T/C,"dose: 25.0 mg/kg/injection, schedule: Q01DX005 (ip), vehicle: Klucel (hydroxypropylcellulose) (HPC), evaluated on day 35",221 % of control
same,T/C,[4],"115, 125, 139, 140, 141, 144, 145, 165, 184, 188, 193 [2 of 2 alive], 203, 205, 209, 214, 215, 216 (2×), 223 (2×), 241, 250, 255, 256, 263, 264, 265, 270, 272, 288 (2×), 294 (2×), 300 % of control"
same,survivor count,[4],2 of 3
same,T/C,"dose: 25.0 mg/kg/injection, schedule: Q08DX002 (ip), vehicle: saline",128 % of control
same,T/C,"dose: 30.0 mg/kg/injection, schedule: Q01DX010 (ip), vehicle: water","140, 240, 272 (2×), 300 % of control (2×)"
same,T/C,"dose: 37.5 mg/kg/injection, schedule: Q01DX001 (ip), vehicle: saline",149 % of control
same,T/C,"dose: 40.0 mg/kg/injection, schedule: Q01DX005 (ip), vehicle: saline, evaluated on day 30","100, 130, 283 % of control"
same,T/C,"dose: 40.0 mg/kg/injection, schedule: Q01DX005 (ip), vehicle: saline, evaluated on day 35",343 % of control (2×)
same,T/C,"dose: 40.0 mg/kg/injection, schedule: Q01DX005 (ip), vehicle: saline, evaluated on day 40",396 % of control
same,T/C,"dose: 40.0 mg/kg/injection, schedule: Q01DX009 (ip), vehicle: saline, evaluated on day 30","130, 160, 283 % of control"
same,T/C,"dose: 40.0 mg/kg/injection, schedule: Q01DX009 (ip), vehicle: saline, evaluated on day 35",343 % of control (2×)
same,T/C,"dose: 40.0 mg/kg/injection, schedule: Q01DX009 (ip), vehicle: saline, evaluated on day 40",161 % of control
same,T/C,"dose: 44.0 mg/kg/injection, schedule: Q04DX003 (ip), vehicle: saline, evaluated on day 5","107, 114, 141, 208, 217, 235 % of control"
same,T/C,"dose: 44.0 mg/kg/injection, schedule: Q04DX003 (ip), vehicle: saline, evaluated on day 60","107, 114, 141, 208, 217, 235 % of control"
same,T/C,[5],"118, 155, 190, 194 % of control"
same,survivor count,[5],2 of 6
same,T/C,"dose: 45.0 mg/kg/injection, schedule: Q01DX010 (ip), vehicle: water","140, 181, 185, 204, 295, 300 % of control"
same,T/C,"dose: 50.0 mg/kg/injection, schedule: Q01DX001 (ip), vehicle: Klucel (hydroxypropylcellulose) (HPC), evaluated on day 30","98, 137, 151, 157, 163, 165, 173, 174, 175, 176, 177 (2×), 180, 182, 184, 186, 187 (2×), 188, 189, 191, 197 (2×), 204, 207, 208, 209, 213, 238 % of control"
same,T/C,"dose: 50.0 mg/kg/injection, schedule: Q01DX001 (ip), vehicle: Klucel (hydroxypropylcellulose) (HPC), evaluated on day 35",148 and 177 % of control
same,survivor count,"dose: 50.0 mg/kg/injection, schedule: Q01DX001 (ip), vehicle: Klucel (hydroxypropylcellulose) (HPC)",3 of 3
same,T/C,"dose: 50.0 mg/kg/injection, schedule: Q01DX001 (ip), vehicle: saline",126 % of control
same,T/C,"dose: 50.0 mg/kg/injection, schedule: Q01DX005 (ip), vehicle: Klucel (hydroxypropylcellulose) (HPC), evaluated on day 30","108, 122, 137, 140, 147, 204, 221, 222, 224, 226, 230, 235, 236, 238, 241 (2×), 243 (2×), 245 (2×), 250, 252, 256, 260, 262, 267 (2×), 270, 272, 272 [5 of 6 alive], 275, 277, 280 % of control"

# Reference: PubChem BioAssay AID328 (DTP/NCI, 2004)
